Values from PubChem BioAssay AID1053208 (Peter MacCallum Cancer Centre, 2014)

Assay: 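Genes whose silencing cuts survival of bone tumour cells only with doxorubicin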 (primary screen)
Cells: mouse osteosarcoma cells, early-passage culture from an engineered mouse model of fibroblastic bone tumour
Reagents: siRNA pool against mouse genes, 40 nM
Timing: about 120 h (48 h before drug, then 72 h with drug)
Challenge: doxorubicin 100 nM for 72 h, roughly 30-40% inhibitory dose
Read-out: 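Luminescent ATP signal taken as viability with or without 100 nM doxorubicin for 72 h; mean of two wells set against non-targeting siRNA and turned into robust z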
Direction: viability z-score with doxorubicin: higher = more viable cells under doxorubicin; viability z-score without drug: higher = more viable cells with knock-down alone
Rule for the call: 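a pool counts as active when its viability z-score with doxorubicin is -2 or below and its z-score without drug lies between -2 and 2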
Shown is one part, drawn at random, of about 17,000 reagents tested. Over the whole deposit, 788 (4.7%) were called active. 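Calls rest on z-score classes alone; an extra cut-off of viability at most 70% of control was not applied to them.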 Further read-outs or replicates are left out here.

The opening 4 records as a preview:
gene | combined z-score class | viability z-score with doxorubicin | viability z-score without drug | activity call
Ppp2r2b (protein phosphatase 2, regulatory subunit B, beta) | high cell count without drug only | 0 | 2.19 | inactive
H2-DMb1 (histocompatibility 2, class II, locus Mb1) | no change with or without drug | -1.57 | -1.18 | inactive
Tslp (thymic stromal lymphopoietin) | no change with or without drug | -1.35 | -1.35 | inactive
Urm1 (ubiquitin related modifier 1) | no change with or without drug | 0.9 | 0 | inactive

Main list, repeating the preview:
gene | combined z-score class | viability z-score with doxorubicin | viability z-score without drug | activity call
Ppp2r2b (protein phosphatase 2, regulatory subunit B, beta) | high cell count without drug only | 0 | 2.19 | inactive
H2-DMb1 (histocompatibility 2, class II, locus Mb1) | no change with or without drug | -1.57 | -1.18 | inactive
Tslp (thymic stromal lymphopoietin) | no change with or without drug | -1.35 | -1.35 | inactive
Urm1 (ubiquitin related modifier 1) | no change with or without drug | 0.9 | 0 | inactive
Vmn2r7 (vomeronasal 2, receptor 7) | no change with or without drug | -0.22 | 0.51 | inactive
Pp2d1 (protein phosphatase 2C-like domain containing 1) | high cell count without drug only | -1.91 | 2.02 | inactive
Syt8 (synaptotagmin VIII) | no change with or without drug | 0 | -0.67 | inactive
Ano2 (anoctamin 2) | no change with or without drug | -0.11 | 0.51 | inactive
Vamp2 (vesicle-associated membrane protein 2) | no change with or without drug | -0.45 | -0.51 | inactive
Trap1a (tumor rejection antigen P1A) | no change with or without drug | 0.45 | 0.84 | inactive
Eps8l1 (EPS8 signaling adaptor L1) | no change with or without drug | -1.35 | -0.17 | inactive
Tap1 (transporter 1, ATP-binding cassette, sub-family B (MDR/TAP)) | no change with or without drug | -0.67 | -0.17 | inactive
Krt79 (keratin 79) | no change with or without drug | 0.22 | -0.84 | inactive
Gria2 (glutamate receptor, ionotropic, AMPA2 (alpha 2)) | no change with or without drug | 0 | -1.18 | inactive
Cd53 (CD53 antigen) | no change with or without drug | -0.67 | -0.84 | inactive
Cdc6 (cell division cycle 6) | no change with or without drug | 1.12 | -0.17 | inactive
Tmem64 (transmembrane protein 64) | no change with or without drug | -1.57 | -0.84 | inactive
Zfp97 (zinc finger protein 97) | high cell count without drug only | 1.69 | 3.04 | inactive
Ifnz (interferon zeta) | no change with or without drug | -1.46 | -1.18 | inactive
Tmem164 (transmembrane protein 164) | no change with or without drug | 1.12 | 0.51 | inactive
Tbx20 (T-box 20) | no change with or without drug | -1.24 | -1.52 | inactive
Mbd2 (methyl-CpG binding domain protein 2) | no change with or without drug | 0.11 | -0.84 | inactive
Or4c110 (olfactory receptor family 4 subfamily C member 110) | no change with or without drug | -0.45 | 0.34 | inactive
Smim30 (small integral membrane protein 30) | no change with or without drug | 0.67 | 1.18 | inactive
Dot1l (DOT1 like histone lysine methyltransferase) | high cell count without drug only | 1.46 | 2.36 | inactive
Grm5 (glutamate receptor, metabotropic 5) | no change with or without drug | 0.67 | -0.84 | inactive
Zbed4 (zinc finger, BED type containing 4) | no change with or without drug | 0.22 | -0.84 | inactive
Sstr3 (somatostatin receptor 3) | no change with or without drug | -0.22 | -0.67 | inactive
Nrgn (neurogranin) | high cell count with and without drug | 2.02 | 2.19 | inactive
Tnfrsf1a (tumor necrosis factor receptor superfamily, member 1a) | low cell count with doxorubicin only | -3.15 | -1.69 | active
Ccnq (cyclin Q) | no change with or without drug | -1.12 | 1.18 | inactive
Fbxw21 (F-box and WD-40 domain protein 21) | no change with or without drug | -1.35 | 0.67 | inactive
Adipoq (adiponectin, C1Q and collagen domain containing) | no change with or without drug | -0.9 | -0.17 | inactive
Mtus1 (mitochondrial tumor suppressor 1) | no change with or without drug | -0.22 | 0.17 | inactive
